Measurements: paper PMC5917423
No constants are given. Whether binding was seen depends on the method and setting. In cells and extracts the contact can be indirect. Binding can be weak; no strength is given.

Biological target: T1, Epstein-Barr virus tegument protein BGLF2, wild type (Epstein-Barr virus (B95-8)) (UniProt P0CK53)
T1 sequence: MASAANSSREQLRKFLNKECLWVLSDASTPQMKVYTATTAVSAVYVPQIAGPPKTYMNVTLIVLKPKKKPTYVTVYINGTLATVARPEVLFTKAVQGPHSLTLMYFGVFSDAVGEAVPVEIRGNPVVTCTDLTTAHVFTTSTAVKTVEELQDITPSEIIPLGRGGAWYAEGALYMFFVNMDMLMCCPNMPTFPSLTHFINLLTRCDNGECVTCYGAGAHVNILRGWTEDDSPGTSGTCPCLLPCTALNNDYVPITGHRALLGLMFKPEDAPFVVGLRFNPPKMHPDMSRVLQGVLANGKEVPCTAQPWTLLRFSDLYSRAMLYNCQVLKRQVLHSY
Test: co-IP; HEK293T cells transfected with BGLF2 vectors, 24 h; lysis in 20 mM Tris-HCl pH 7.8, 150 mM NaCl, 0.5% NP-40, 1 mM EDTA with protease and phosphatase inhibitors; IP with anti-FLAG mouse antibody and protein G Sepharose at 4°C for >2 h; four washes; immunoblot

Substance: p38 MAPK (human (endogenous in HEK293T)) (enzyme)
- binding: binds
